Measurements taken from patent US7829080B2, “Stabilization method of reduced coenzyme Q10” (Kaneka Corporation, priority 2006, dated 2010).
For at least one compound, name, drawing or mass did not settle the structure.

What was measured:
[1] = Stability of crystals exposed to air at 25° C. (Example 1); format: physicochemical; conditions: after 24 hr, initial ratio 99.4/0.6
[2] = Stability in ethanol stirred in the air at 25° C. (Example 2); format: physicochemical; conditions: 50 mg in 5 g ethanol, stirred in the air at 25° C. for 6 hr; initial ratio 99.4/0.6

COc1c(O)c(C)c(C/C=C(\C)CC/C=C(\C)CC/C=C(\C)CC/C=C(\C)CC/C=C(\C)CC/C=C(\C)CC/C=C(\C)CC/C=C(\C)CC/C=C(\C)CCC=C(C)C)c(O)c1OC [reduced coenzyme Q10]
weight ratio of reduced coenzyme Q10/oxidized coenzyme Q10 [1]: 95.5/4.5
weight ratio of reduced coenzyme Q10/oxidized coenzyme Q10 [2]: 87.2/12.8
